In US11453640B2, “Small molecules for disrupting the super elongation complex and inhibiting transcription elongation for cancer therapy” (NORTHWESTERN UNIVERSITY, priority 2018, dated 2022):
At least one compound was matched to its structure with a doubt left.

Key:
[1] = tested on: ELL2; assay: Western blotting of ELL2 protein levels in 293T cells; assay type: cell-based, human; conditions: 20 μM, 6 hr
From the text: FIG. 10, related to FIG. 3. Disruption of SEC phenocopies slow Pol II mutants and reduces Pol II processivity. (A) Identification of the 1,057 genes with typical Pol II termination signals around the TES. Pol II signals from WT Pol II mutant expressing cells were K-means clustered into 5 groups with a window of 15 kb around the TES. The expressing genes from clusters with a typical Pol II termination signals were selected and plotted. (B) SEC inhibitor treatments of the WT Pol II mutant expressing cells lead to a Pol II phenotype similar to slower Pol II mutant expressing cells as viewed at the 3′-end of genes. (C-D) Time-dependent and dose-dependent shift of Pol II signals around the TES sites by KL-2 treatment (N=1,057). (E) Genome browser tracks of Serine 2 phosphorylated (Ser2P) Pol II at the SRSF1 gene in HEK293T cells treated with vehicle or SEC inhibitors. SEC inhibitor treatments result in increased Pol II occupancy at the promoter-proximal region and increased occupancy of Ser2P Pol II in the gene body. […] (H) SEC inhibition results in decreased protein levels of the SEC subunit ELL2. 293T cells were treated with 20 μM of the indicated inhibitors for 6 hr before harvesting cells for western blotting. (I-K) Depletion of ELL2 in HEK293T cells (I) results in apparent early termination of Pol II with reduced Pol II occupancy downstream of the PIM3 (J) and ACTB (K) annotated TES. […]

[2] = tested on: MDA231-LM2 cells; assay: Annexin V apoptosis in MDA231-LM2 cells; assay type: cell-based; conditions: 24 hr
Description: FIG. 14, related to FIG. 7. SEC disruptors delay tumor progression and improve survival of MDA231-LM2 tumor mice. (A) KL-1 and KL-2 inhibit the colony formation of MDA231-LM2 cells in vitro. 5×10^3 MDA231-LM2 cells were seeded in 6-well plates and treated with KL-1 or KL-2 at the indicated doses for 5 days. Crystal violet staining was performed to stain the colonies. (B) KL-1 and KL-2 induce apoptosis in MDA231-LM2 cells. Bar graph depiction of Annexin V positive MDA231-LM2 cells after 24 hr of KL-1 and KL-2 treatments at the indicated concentrations. Data are represented as Mean+/−SD. […] Each individual line indicates the weights of each mouse during toxicity test.

[3] = tested on: MDA231-LM2 tumor; assay: MDA231-LM2 tumor model in athymic nude mice; assay type: in vivo; conditions: 10 mg/kg once daily, 15 intraperitoneal injections
Description: FIG. 7. SEC disruptors delay tumor progression and improve survival of MDA231-LM2 tumor mice. (A) Schematic of the development of MDA231-LM2 tumors in athymic nude mice (Wang et al., 2017). 4×10^6 MDA231-LM2 cells were inoculated into the fat pads of nude mice. 17 days after injection, when the tumor reached 100 mm^3, mice were divided randomly into three groups. Drug treatments were performed with once daily with 50 mg/kg KL-1, 10 mg/kg KL-2 or PBS (vehicle) for a total of 15 intraperitoneal injections. (B-C) KL-1 and KL-2 delay the tumor growth in the MDA231-LM2 tumor mouse model. The average tumor sizes of the vehicle (n=6), KL-1 (n=7), and KL-2 (n=5) treated groups were plotted from day 5 to day 36 after inoculation (B). Representative tumors sizes are shown (C). […] A 2-way unpaired student's t-test was used for statistical analysis. (E) Kaplan-Meier survival curves of vehicle, KL-1, and KL-2 treated nude mice transplanted with 4×10^6MDA231-LM2 cells. 17 days after inoculation, vehicle (n=6), KL-1 (n=7), and KL-2 (n=5) were administered daily for 15 intraperitoneal injections. Mice were euthanized when the tumor size reached 1000 mm^3. Thep values were calculated using the log-rank test.
MDA231-LM2 Tumor Model. […] The tumor sizes were measured twice a week and the mice were euthanized when the tumor size reached 1000 mm^3.

Cc1ccc(Cl)cc1NC(=O)C(=O)CC(=O)c1ccc(F)cc1 [KL-2, N-(5-chloro-2-methylphenyl)-4-oxo-(4-fluorophenyl)-2-oxobutanamide]
ELL2 protein levels [1]: led to reduced ELL2 protein levels
apoptosis (Annexin V staining) [2]: increase apoptosis
survival of the recipient mice [3]: significantly extended survival
tumor progression (tumor sizes) [3]: delayed tumor progression
